According to publication doi:10.1101/2023.03.05.531149:
Results are given in words; binding and its absence hold for the method and conditions named. In cells and extracts the contact can be indirect. A yes stands for co-enrichment or nearness to the bait. Other partners may have been found.

Amino acid sequences for entries named in this document (tags omitted). Residues count along the entry.
UniProt P48431, residues 115-240: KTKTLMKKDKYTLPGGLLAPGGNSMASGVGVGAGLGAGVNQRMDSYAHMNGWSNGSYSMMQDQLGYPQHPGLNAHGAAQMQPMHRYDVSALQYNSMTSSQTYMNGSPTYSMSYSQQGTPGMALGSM
UniProt Q9Z0Z7: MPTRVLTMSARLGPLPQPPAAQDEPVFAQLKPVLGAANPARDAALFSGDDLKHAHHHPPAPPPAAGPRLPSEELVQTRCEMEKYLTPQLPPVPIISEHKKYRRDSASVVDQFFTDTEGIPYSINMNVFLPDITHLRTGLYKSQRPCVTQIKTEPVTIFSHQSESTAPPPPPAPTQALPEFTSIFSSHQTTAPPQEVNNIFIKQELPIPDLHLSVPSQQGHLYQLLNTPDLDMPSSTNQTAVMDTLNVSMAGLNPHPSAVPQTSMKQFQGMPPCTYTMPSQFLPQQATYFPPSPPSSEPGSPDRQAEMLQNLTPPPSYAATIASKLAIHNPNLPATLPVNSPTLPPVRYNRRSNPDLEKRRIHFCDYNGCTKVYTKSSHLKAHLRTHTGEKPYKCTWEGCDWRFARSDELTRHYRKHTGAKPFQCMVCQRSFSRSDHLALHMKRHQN

Assays:
[1] = target: phospho-Sox2(aa115-240)-pS212-pS220-pT232, AviTag, biotinylated (human) (UniProt P48431); test: affinity purification with mass spectrometry
[2] = target: AviTag-Sox2(aa115-240), biotinylated, non-phosphorylated (human) (UniProt P48431); test: affinity purification with mass spectrometry

binding [1]: binds
binding [2]: binds
Substance: Klf5 (from UniProt Q9Z0Z7 1-446)
